According to patent US20210032339A1 (AMPHIVENA THERAPEUTICS, published 2021):
No constants are given. Whether binding was seen depends on the method and setting. Some binding calls cover weakened binding; strength is not graded here.

T1: stretch 62…70 in the first Ig like domain of human CD33 (human)
T1 sequence (peptide): DQEVQEETQ

B1: CD33/CD3 tandem diabody 12 (bispecific antibody)
chain: DIQMTQSPSSLSASVGDRVTITCRSSTGAVTTSNYANWVQQKPGKAPKALIGGTNKRAPGVPSRFSGSLIGDKATLTISSLQPEDFATYYCALWYSNLWVFGQGTKVEIKGGSGGSQVQLVQSGAEVKKPGASVKVSCKASGYTFTSYDINWVRQAPGQGLEWMGWMNPNSGNTGFAQKFQGRVTMTRDTSTSTVYMELSSLRSEDTAVYYCARDRAVTDYYYGMDVWGQGTLVTVSSGGSGQSVLTQPPSASGTPGQRVTISCSGSRSNIGSNTVNWYQQLPGTAPKLLIYGNNQRPSGVPDRFSGSKSGTSASLAISGLQSEDEADYYCATWDDSLIGWVFGGGTKLTVLGGSGGSEVQLVESGGGLVQPGGSLRLSCAASGFTFSTYAMNWVRQAPGKGLEWVGRIRSKYNNYATYYADSVKDRFTISRDDSKNSLYLQMNSLKTEDTAVYYCARHGNFGNSYVSYFAYWGQGTLVTVSSAAAGSHHHHHH
B2: CD33/CD3 tandem diabody 14 (bispecific antibody)
chain: DIQMTQSPSSLSASVGDRVTITCRSSTGAVTTSNYANWVQQKPGKAPKALIGGTNKRAPGVPSRFSGSLIGDKATLTISSLQPEDFATYYCALWYSNLWVFGQGTKVEIKGGSGGSQVQLVQSGAEVKKPGASVKVSCKASGYTFTSYDINWVRQAPGQGLEWMGWMNPNSGNTGFAQKFQGRVTMTRDTSTSTVYMELSSLRSEDTAVYYCARDRANTDFSYGMDVWGQGTLVTVSSGGSGQSVLTQPPSASGTPGQRVTISCSGSRSNIGSNTVNWYQQLPGTAPKLLIYGNNQRPSGVPDRFSGSKSGSSASLAISGLQSEDEADYYCATWDDSLIGWVFGGGTKLTVLGGSGGSEVQLVESGGGLVQPGGSLRLSCAASGFTFSTYAMNWVRQAPGKGLEWVGRIRSKYNNYATYYADSVKDRFTISRDDSKNSLYLQMNSLKTEDTAVYYCARHGNFGNSYVSYFAYWGQGTLVTVSSAAAGSHHHHHH
B3: CD33/CD3 tandem diabody 16 (bispecific antibody)
chain: DIQMTQSPSSLSASVGDRVTITCRSSTGAVTTSNYANWVQQKPGKAPKALIGGTNKRAPGVPSRFSGSLIGDKATLTISSLQPEDFATYYCALWYSNLWVFGQGTKVEIKGGSGGSQVQLVQSGAEVKKPGASVKVSCKASGYTFTSYDINWVRQAPGQGLEWMGWMNPNSGNTGFAQKFQGRVTMTRDTSTSTVYMELSSLRSEDTAVYYCARDRANTDYSLGMDVWGQGTLVTVSSGGSGQSVLTQPPSASGTPGQRVTISCSGSRSNIGSNTVNWYQQLPGTAPKLLIYGNNQRPSGVPDRFSGSKSGTSASLAISGLQSEDEADYYCATWDDSLIGWVFGGGTKLTVLGGSGGSEVQLVESGGGLVQPGGSLRLSCAASGFTFSTYAMNWVRQAPGKGLEWVGRIRSKYNNYATYYADSVKDRFTISRDDSKNSLYLQMNSLKTEDTAVYYCARHGNFGNSYVSYFAYWGQGTLVTVSSAAAGSHHHHHH

biological target: T1, stretch 62…70 in the first Ig like domain of human CD33 (human); assay: CLIPS peptide array ELISA (Pepscan)

Binder | binding
B1 | binds
B2 | binds
B3 | binds
